US7786131B2, “Pyrimido[5,4-d]pyrimidines derivatives as irreversible inhibitors of tyrosine kinases” (Warner-Lambert Company, priority 1996, dated 2010)
For at least one compound, name, drawing or mass did not settle the structure.

Target: T1, EGF receptor autophosphorylation in A431 cells (Homo sapiens, UniProt P00533)
T1 construct: A431 human epidermoid carcinoma cells were grown in 6-well plates; endogenous in cells; host or cells: A431 human epidermoid carcinoma cells
Experiment: Irreversibility test: recovery of EGF receptor autophosphorylation after washout
Format: cell-based
Settings: 2 μM inhibitor, Y/N

C=CC(=O)Nc1ccc2ncnc(N(C)C)c2c1 [Example 12, N-[4-(N,N-Dimethylamino)-quinazolin-6-yl]acrylamide]
Irreversible: N
